Measured values as given in PubChem BioAssay AID2685 (National Center for Advancing Translational Sciences (NCATS), 2010).
The other results are listed elsewhere or left out. These are further read-outs of the screen, such as a control signal, another cell line or another target. No call is given for them. Most of these compounds were active or inconclusive in the main read-out, so they are no random draw. Words in brackets tell the shape of the fitted curve; partial curves, single points and poor fits give uncertain potencies.

Experiment: qHTS Assay for Lipid Storage Modulators in Drosophila S3 Cells;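 as to cell number change: cells counted by Cell Tracker Red CMTPX staining in the red channel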
Conditions: BODIPY lipid droplet fluorescence, 18-24 h; for cell number change: measured here: cell count max response, cells fed with added oleic acid
Method in brief: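 Laser-scanning cytometry quantifies lipid droplet accumulation (500–530 nm total intensity; droplet/cell object ratio) in oleic acid-fed (400 uM added) Drosophila S3 cells treated with a concentration series. 20 uM Triacsin C defined 100% inhibition.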

[1] = measured here: cell number channel AC50, cells fed with added oleic acid
[2] = measured here: lipid fluorescence (Fed channel) AC50, cells fed with added oleic acid

| Compound | cell number change [%] | AC50 [1] | AC50 [2] |
| --- | --- | --- | --- |
| COc1ccc(N2CSC3=C(C#N)C(c4cc(OC)c(OC)cc4OC)CC(=O)N3C2)c(OC)c1 (stereo not given) | 37.3 | 2.91 µM [rising, full curve] | 2.31 µM [rising, full curve] |
| CCN(CC)CCOC(=O)c1c(C)oc2ccc(OC)cc12 | -2.65 | – | 2.59 µM [falling, partial curve, poor fit] |
| COC(=O)c1cc(Br)ccc1NC(=O)CSCc1c(C)noc1C | -29.7 | 3.66 µM [falling, full curve, poor fit] | 14.6 µM [falling, partial curve] |
| Cc1ccc(S(=O)(=O)Nc2nc(N)n(-c3ccccc3)n2)cc1 | 5.81 | – | – |
| Cc1cc(=O)n2nc(N3CCCC3C(=O)Nc3cccc(F)c3)sc2n1 (stereo not given) | 6.63 | – | – |
| N#CC1=C2SCN(c3ccccc3)CN2C(=O)CC1c1c(Cl)cccc1Cl (stereo not given) | -32.3 | 23.1 µM [falling, partial curve, poor fit] | 3.66 µM [rising, partial curve, poor fit] |
| CN(C)CCCN(C(=O)c1cc2cc([N+](=O)[O-])ccc2s1)c1nc2cc3c(cc2s1)OCCO3 | -88.7 | 20.6 µM [falling, partial curve] | 20.6 µM [falling, partial curve, poor fit] |
| CC(OC(=O)CCCc1nc2ccccc2s1)C(=O)NC(N)=O (stereo not given) | -28 | – | 25.9 µM [falling, single point] |
| CC(C)n1cnc2c(Nc3ccc(F)c(Cl)c3)nc(NCCO)nc21 | -35.3 | – | 29.1 µM [falling, single point] |
| C/C(=N/NC(=O)CNC(=O)CCc1ccccc1)c1ccc(Cl)cc1 | – | – | 0.058 µM [rising, full curve, poor fit] |
| CC(C)c1ccc(NC(=O)C(=O)C2C(=O)Nc3ccccc32)cc1 (stereo not given) | 8.27 | – | – |
| CCCCn1c(N)c(N(CC(C)C)C(=O)C2=NN(c3ccccc3)C(=O)CC2)c(=O)[nH]c1=O | -6.09 | – | 6.51 µM [rising, single point] |
| CCCn1nc(C(=O)N(C)CC(=O)Nc2ccc(OCC)c(OCC)c2)c2ccccc2c1=O | -6.09 | – | – |
| CN(C(=O)c1ccc(NC(=O)Cc2ccc(NC(=O)C3CCN(C(=O)c4ccccc4)CC3)cc2)cc1)C1CC1 | 8.73 | 0.82 µM [falling, single point] | 1.16 µM [falling, single point] |
| O=C(c1ccccc1)c1ccc(-n2ccnc2)c([N+](=O)[O-])c1 | 23.8 | – | 0.116 µM [rising, full curve, poor fit] |

Some of the entries above, set out differently:
Compound	cell number change [%]	AC50 [1]	AC50 [2]
CC(C)c1ccc(NC(=O)C(=O)C2C(=O)Nc3ccccc32)cc1 (stereo not given)	8.27	–	–
CCCCn1c(N)c(N(CC(C)C)C(=O)C2=NN(c3ccccc3)C(=O)CC2)c(=O)[nH]c1=O	-6.09	–	6.51 µM [rising, single point]
CCCn1nc(C(=O)N(C)CC(=O)Nc2ccc(OCC)c(OCC)c2)c2ccccc2c1=O	-6.09	–	–
